Laboratory results from publication PMC3464894.
No constants are given. Whether binding was seen depends on the method and setting. Binding seen in cells or lysates may run through a third protein. Here binding means that the protein was enriched with, or labelled near, the bait; the list need not be complete. A no says only that the protein was not detected with the bait.

Biological target: HTLV-2 p28 (S-p28-HA) (HTLV-2)
Experiment: affinity purification with mass spectrometry; S-tagged p30 or p28 expressed in HEK 293T; lysate (1x passive lysis buffer) rocked with S-beads overnight at 4°C; washed once with 1 M NaCl RIPA, three times with RIPA, once with PBS; beads to shotgun Capillary-LC/MS/MS; proteins of the mock control subtracted; duplicate experiments

B1: Inorganic pyrophosphatase (enzyme, UniProt Q15181 1-289)
chain: MSGFSTEERAAPFSLEYRVFLKNEKGQYISPFHDIPIYADKDVFHMVVEVPRWSNAKMEIATKDPLNPIKQDVKKGKLRYVANLFPYKGYIWNYGAIPQTWEDPGHNDKHTGCCGDNDPIDVCEIGSKVCARGEIIGVKVLGILAMIDEGETDWKVIAINVDDPDAANYNDINDVKRLKPGYLEATVDWFRRYKVPDGKPENEFAFNAEFKDKDFAIDIIKSTHDHWKALVTKKTNGKGISCMNTTLSESPFKCDPDAARAIVDALPPPCESACTVPTDVDKWFHHQKN
- binding: binds

B2: Serine/threonine-protein phosphatase 6 catalytic subunit (enzyme, UniProt O00743 1-305)
chain: MAPLDLDKYVEIARLCKYLPENDLKRLCDYVCDLLLEESNVQPVSTPVTVCGDIHGQFYDLCELFRTGGQVPDTNYIFMGDFVDRGYYSLETFTYLLALKAKWPDRITLLRGNHESRQITQVYGFYDECQTKYGNANAWRYCTKVFDMLTVAALIDEQILCVHGGLSPDIKTLDQIRTIERNQEIPHKGAFCDLVWSDPEDVDTWAISPRGAGWLFGAKVTNEFVHINNLKLICRAHQLVHEGYKFMFDEKLVTVWSAPNYCYRCGNIASIMVFKDVNTREPKLFRAVPDSERVIPPRTTTPYFL
- binding: binds

B3: Peroxiredoxin-2 (enzyme, UniProt P32119 1-198)
chain: MASGNARIGKPAPDFKATAVVDGAFKEVKLSDYKGKYVVLFFYPLDFTFVCPTEIIAFSNRAEDFRKLGCEVLGVSVDSQFTHLAWINTPRKEGGLGPLNIPLLADVTRRLSEDYGVLKTDEGIAYRGLFIIDGKGVLRQITVNDLPVGRSVDEALRLVQAFQYTDEHGEVCPAGWKPGSDTIKPNVDDSKEYFSKHN
- binding: binds

B4: NEFA-interacting nuclear protein NIP30 (protein, UniProt Q9GZU8 1-254)
chain: MDGGDDGNLIIKKRFVSEAELDERRKRRQEEWEKVRKPEDPEECPEEVYDPRSLYERLQEQKDRKQQEYEEQFKFKNMVRGLDEDETNFLDEVSRQQELIEKQRREEELKELKEYRNNLKKVGISQENKKEVEKKLTVKPIETKNKFSQAKLLAGAVKHKSSESGNSVKRLKPDPEPDDKNQEPSSCKSLGNTSLSGPSIHCPSAAVCIGILPGLGAYSGSSDSESSSDSEGTINATGKIVSSIFRTNTFLEAP
- binding: no binding

B5: Serine/threonine-protein phosphatase 6 regulatory subunit 3 (protein, UniProt Q5H9R7 1-873)
chain: MFWKFDLHSSSHIDTLLEREDVTLKELMDEEDVLQECKAQNRKLIEFLLKAECLEDLVSFIIEEPPQDMDEKIRYKYPNISCELLTSDVSQMNDRLGEDESLLMKLYSFLLNDSPLNPLLASFFSKVLSILISRKPEQIVDFLKKKHDFVDLIIKHIGTSAIMDLLLRLLTCIEPPQPRQDVLNWLNEEKIIQRLVEIVHPSQEEDRHSNASQSLCEIVRLSRDQMLQIQNSTEPDPLLATLEKQEIIEQLLSNIFHKEKNESAIVSAIQILLTLLETRRPTFEGHIEICPPGMSHSACSVNKSVLEAIRGRLGSFHELLLEPPKKSVMKTTWGVLDPPVGNTRLNVIRLISSLLQTNTSSINGDLMELNSIGVILNMFFKYTWNNFLHTQVEICIALILASPFENTENATITDQDSTGDNLLLKHLFQKCQLIERILEAWEMNEKKQAEGGRRHGYMGHLTRIANCIVHSTDKGPNSALVQQLIKDLPDEVRERWETFCTSSLGETNKRNTVDLVTTCHIHSSSDDEIDFKETGFSQDSSLQQAFSDYQMQQMTSNFIDQFGFNDEKFADQDDIGNVSFDRVSDINFTLNTNESGNIALFEACCKERIQQFDDGGSDEEDIWEEKHIAFTPESQRRSSSGSTDSEESTDSEEEDGAKQDLFEPSSANTEDKMEVDLSEPPNWSANFDVPMETTHGAPLDSVGSDVWSTEEPMPTKETGWASFSEFTSSLSTKDSLRSNSPVEMETSTEPMDPLTPSAAALAVQPEAAGSVAMEASSDGEEDAESTDKVTETVMNGGMKETLSLTVDAKTETAVFKSEEGKLSTSQDAACKDAEECPETAEAKCAAPRPPSSSPEQRTGQPSAPGDTSVNGPV
- binding: binds
